Data as given in EP3587389A1 (INSTYTUT FARMACEUTYCZNY, priority 2018, dated 2020).
At least one read-out could not be matched to a standard name with certainty.

Experiment: DPPH free radical scavenging assay
Procedure: J Nat Prod. 2010 Feb 26; 73(2): 252-4. doi: 10.1021/np900519d.) with a modification. Briefly, different concentrations of the compounds (100 µl) were mixed with 900 µl of the 0.04 mg/ml methanolic solution of DPPH. The mixture was kept at room temperature for 30 min, and then the absorbance at 517 nm was measured. The half maximal inhibitory concentration (IC50) was used as an indicating measure of the scavenging activity.

Row | Compound | IC50 values from the DPPH assay (in words)
1 | COC(=O)/C=C/c1ccc(O)c(O)c1O [Compound 12, 3-(2',3',4'-trihydroxyphenyl)-(E)-propenoic acid methyl ester] | lower IC50 values
2 | CC(=O)/C=C/c1ccc(O)c(O)c1O [Compound 18, 4-(2',3',4'-trihydroxyphenyl)-3(E)-buten-2-one] | lower IC50 values
